The record followed here is patent publication US20260184748A1 (The Trustees of the University of Pennsylvania, priority 2022, published 2026).

For some assays here: HELM strings list residues between dots; [ac] is acetyl, [am] amide, other brackets name non-standard units. Where no end group is shown, it is not given here.

A short description of series [1]: peptide synthesis. Conditions: whole synthesis, acetate salt (ODN and TDN, rather than TFA salt).
Series [2] in a line: peptide synthesis. The following applies: whole synthesis, MALDI-ToF MS and RP-HPLC (Zorbax analytical C18 column), acetate salt (ODN and TDN, rather than TFA salt).

As for RPGLLDLK, the “final HPLC purity” value in the series “peptide synthesis [1]” was found to be 96.4% pure. For the substance “PEPTIDE1{D.V.N.T.D.R.P.G.L.L.D.L.K.[am]}$$$$V2.0”, in the series “peptide synthesis [2]”, the “final HPLC purity” value is given as 100% pure. As for “PEPTIDE1{Q.A.T.V.G.D.V.N.T.D.R.P.G.L.L.D.L.K.[am]}$$$$V2.0”, the “final HPLC purity” value in the series “peptide synthesis [2]” stood at 100% pure.

As to Arg-Pro-Gly-Leu-Leu, the “final HPLC purity” value in the series “peptide synthesis [1]” is on record as 95% pure.

On to “PEPTIDE1{R.P.G.L.[dL].D.L.K.[am]}$$$$V2.0”, for which the “final HPLC purity” value in “peptide synthesis [2]” was 96% pure.
